Laboratory results published in paper PMC6925144, “A prospective compound screening contest identified broader inhibitors for Sirtuin 1” (Scientific Reports, 2019).
Over roughly 3,200 compounds, “TSA(with NAD+) / Primary screening (TSA) / delta Tm (K)” has its median near -0.04; the highest 2% begin near 0.37. The list shows a part of the results.

By UniProt entry, the sequences of proteins in these tests, tags left out. Residues count along the entry.
UniProt Q96EB6, 2-747 limits assumed: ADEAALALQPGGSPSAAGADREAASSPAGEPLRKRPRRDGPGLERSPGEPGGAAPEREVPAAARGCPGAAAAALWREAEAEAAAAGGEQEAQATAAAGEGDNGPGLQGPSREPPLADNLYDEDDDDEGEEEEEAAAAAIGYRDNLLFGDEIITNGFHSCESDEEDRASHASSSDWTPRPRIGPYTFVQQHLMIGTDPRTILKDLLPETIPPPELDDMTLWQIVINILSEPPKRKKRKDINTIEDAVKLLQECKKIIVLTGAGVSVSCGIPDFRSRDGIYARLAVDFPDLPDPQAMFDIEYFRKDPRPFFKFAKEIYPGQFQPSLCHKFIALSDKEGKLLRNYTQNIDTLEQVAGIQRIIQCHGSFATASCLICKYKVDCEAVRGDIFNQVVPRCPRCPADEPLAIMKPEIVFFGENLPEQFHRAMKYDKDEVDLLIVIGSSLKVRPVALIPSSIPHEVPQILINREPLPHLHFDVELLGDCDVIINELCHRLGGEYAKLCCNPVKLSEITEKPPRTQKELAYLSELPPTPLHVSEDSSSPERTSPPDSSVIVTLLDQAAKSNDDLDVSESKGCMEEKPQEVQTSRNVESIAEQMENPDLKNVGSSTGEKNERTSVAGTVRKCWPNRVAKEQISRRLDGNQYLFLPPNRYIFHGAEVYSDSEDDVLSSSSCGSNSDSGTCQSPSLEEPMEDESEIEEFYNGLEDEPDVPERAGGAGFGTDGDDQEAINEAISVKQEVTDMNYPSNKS

biological target: NAD-dependent deacetylase Sirtuin 1 (human, UniProt Q96EB6); experiment: primary screen, delta tm; design: single well (n = 1, as 'the same TSA'); conditions: 10 µM

Structure (SMILES)	TSA(with NAD+) / Primary screening (TSA) / delta Tm (K)
NNc1ncnc2c1cnn2-c1ccccc1	-0.11
COC(=O)c1cc2ccccc2c(CN(C)Cc2ccc(C(N)=O)cc2)c1O	-0.13
NC(=O)c1ccc(NC(=O)COC(=O)COc2ccc3c(c2)CCC3)cc1	-0.04
Cc1nc(-c2ccc(CNC(=O)c3cccc([N+](=O)[O-])c3)cc2)cs1	-0.04
O=c1c2ccccc2ncn1CC(O)c1ccccc1Cl (stereo not drawn)	0.38
CCOc1ccc(Oc2ccc(NC(=O)CNC(=O)CC34CC5CC(CC(C5)C3)C4)cc2)cc1	0.12
Cc1nc(SCC(=O)N(C)C2CCCc3ccccc32)c2ccccc2n1 (stereo not drawn)	-0.18
Cc1cccc(C)c1OC(=O)c1ccc(C#N)cc1	-0.06
Cc1nc(-c2ccccn2)[nH]c(=O)c1CC(=O)NCc1cccc(Oc2ccccc2)c1	0.16
CC(CN1CCOCC1)NC(=O)C(Cc1ccccc1)n1cnnn1 (stereo not drawn)	-0.09
CS(=O)(=O)c1ccc(NC(=O)c2ccccc2SCC(=O)NC23CC4CC(CC(C4)C2)C3)cc1	-0.09
CCS(=O)(=O)Nc1ccc(C(C)NCc2cnn(C)c2C)cc1 (stereo not drawn)	-0.13
O=C(Nc1cccc(S(=O)(=O)NCc2ccco2)c1)c1ccccc1OCc1ccccc1Cl	0.17
O=C(COc1ccccc1-c1ccccc1)Nc1cccc(S(=O)(=O)NCc2ccco2)c1	-0.02
Cc1ccc(NC(=O)C(OC(=O)C23CC4CC(CC(O)(C4)C2)C3)c2ccccc2)c([N+](=O)[O-])c1 (stereo not drawn)	-0.13
CC(=O)Nc1ccc(NCc2nnc3n(C)c(=O)c4ccccc4n23)cc1Cl	-0.06
CCOc1ccc(C(=O)NCCc2ccc(S(N)(=O)=O)cc2)cc1	0.16
Cc1cnn(CCNCc2coc(-c3ccccc3Cl)n2)c1	-0.26
Cc1ccc(C(=O)NC(C)c2nc(C)c(C(=O)O)s2)s1 (stereo not drawn)	-0.28
Cn1cnnc1Sc1ccc(Cl)cc1NC(=O)c1cnc2ccccc2n1	-0.03
Cc1ccc(Cl)cc1NC(=O)CC#N	-0.03
CCc1ccc(C(Nc2ccc3nnnn3n2)c2cccc(F)c2)cc1 (stereo not drawn)	0.08
CN(c1ccc(C(N)=O)cc1)S(=O)(=O)c1ccccc1	-0.14
NC(=O)c1c(NC(=O)CSc2nnc(N3CCCC3)n2CC2CCCO2)sc2c1CCCC2 (stereo not drawn)	0.01

Structure (SMILES)	TSA(with NAD+) / Primary screening (TSA) / delta Tm (K)
COC(=O)c1cn(CC(=O)NCCc2cccs2)c2ccccc12	0.06
CC(c1ccco1)N(C)CC(=O)N1CCC(C(N)=O)CC1 (stereo not drawn)	-0.06
O=C(NCc1ccc(N2CCCC2)cc1)c1csc([N+](=O)[O-])c1	-0.03
CCCN(C(=O)c1ccc(Oc2ccccc2)cc1)C1CCS(=O)(=O)C1 (stereo not drawn)	-0.32
O=C1/C(=C/c2cc3c(cc2Br)OCO3)Oc2cc(O)ccc21	-0.03
O=C(NCc1ccc(-n2cccn2)nc1)c1ccc(/C=C/c2ccc3ccccc3n2)cc1	-0.18
Cc1c2c(nc3c1oc1ccccc13)CCCCCCCCCC2	-0.08
CON(C)C(=O)c1[nH]c2ccc(C)cc2c1C	0.06
Cc1ccc(N(C)S(=O)(=O)c2cccc(C(=O)NNC(=O)CC34CC5CC(CC(C5)C3)C4)c2)cc1	0.19
O=C1CCCN1c1cccc(NS(=O)(=O)c2cccc(F)c2)c1	-0.08
O=C(CCc1ccccc1F)NCc1cccc(NC(=O)c2ccncc2)c1	0.03
CCCCCCC(C)NN (stereo not drawn)	-0.11
NC(=O)c1ccc(NC(=O)NCc2ccnc3ccccc23)cc1Cl	0.08
Cc1cc(CC(=O)N2CCC3(CCC3)C2)n[nH]1	-0.13
CN(C(=O)CSc1nc(-c2cccs2)cc(C(F)(F)F)c1C#N)C1CCS(=O)(=O)C1 (stereo not drawn)	-0.08
COC(=O)C(CNC(=O)c1ccc2nccn2c1)c1ccc(F)cc1 (stereo not drawn)	0.02
CC1CC(C)(C)CC2(C1)NC(=O)N(CC(=O)Nc1ccc(C(N)=O)cc1)C2=O (stereo not drawn)	-0.15
Cc1nc2ccccc2c(C)c1CC(=O)NC1CCCc2ccccc21 (stereo not drawn)	-0.02
O=C(Cn1[nH]c(=O)c2ccccc2c1=O)NC1CCCc2ccccc21 (stereo not drawn)	-0.04
O=C(CCCc1nc2ccccc2c(=O)[nH]1)NC1CCCc2ccccc21 (stereo not drawn)	-0.23
O=C(OCc1cc(=O)n2c(n1)sc1ccccc12)c1ccc2[nH]c3c(c2c1)CCCC3	0.09
CC1(C)Cc2cccc(OCC(=O)OCC(=O)Nc3ccc(C(N)=O)cc3)c2O1	0.08
O=C(c1ccccc1)C(Sc1nc(-c2ccccc2)n[nH]1)c1ccccc1 (stereo not drawn)	0.12
O=C(O)CNCC(=O)O	-0.01

Structure (SMILES)	TSA(with NAD+) / Primary screening (TSA) / delta Tm (K)
CC(C)(C)OC(=O)NC1CCN(CC(=O)NCCNc2ncnc3sccc23)CC1	-0.01
C[C@H]1CNCCN1	-0.05
COc1ccccc1NS(=O)(=O)c1cccc(NC(=O)c2oc3ccccc3c2CSC)c1	-0.08
NC(=O)c1ccc(OCC(=O)N(CCc2ccccc2)Cc2ccccc2)cc1	-0.12
CN(Cc1cnn(Cc2ccccc2)c1)C(=O)CCc1ncc(-c2c(F)cccc2F)o1	-0.03
Cn1c(=O)[nH]c(=O)c2c1nc(N1CCC(C(N)=O)CC1)n2CCSc1ncccn1	-0.02
COc1ccc(OCCN(C)C(=O)c2ccc(NC3=NS(=O)(=O)c4ccccc43)cc2)cc1	0.16
COC(=O)c1cc(-c2csc(NC(=O)c3cccc(NC(=O)c4cnoc4C)c3)n2)c[nH]1	0.67
O=c1cc(N2CCC(Nc3ccccc3)CC2)nc2ccccn12	0.07
O=C1CC[C@@H](Nc2cnc3cc(F)c(F)cc3n2)[C@H](c2ccccc2)N1	0.15
Nc1ccc(-n2ncc3c(=O)[nH]cnc32)cc1	0.35
Cc1cc(C)c2c(n1)sc1c(N3CCOCC3)ncnc12	0.08
C1CCCC2(CC1)CCNC2	-0.12
Cc1ccc(N(C)S(=O)(=O)c2cccc(C(=O)NNC(=O)c3ccncc3)c2)cc1	-0.01
CN(C)c1ccnc(N2CCCC(N3CCNC3=O)C2)n1 (stereo not drawn)	-0.11
O=C(Nc1ccc2[nH]c(=O)[nH]c2c1)c1cc(S(=O)(=O)NCC2CCCO2)ccc1Br (stereo not drawn)	-0.01
Cc1c(C(=O)C2=C(O)C(=O)N(CCCN3CCOCC3)C2c2ccco2)cnn1-c1ccccc1 (stereo not drawn)	-0.05
CC(=O)Nc1cccc2c1CCN(c1cc(=O)n3ccccc3n1)C2	-0.03
O=C(Nc1cccc(S(=O)(=O)N2CCOCC2)c1)c1cn(-c2ccccc2)nc1-c1ccc(Cl)cc1	0.63
CC(C)(C)c1ccccc1NC(=O)c1ccc(S(=O)(=O)N2CCCC2)cc1	-0.12
CCOC(=O)CN	-0.28
CN(C)C(C)(C)CNCc1c[nH]nc1-c1ccc2c(c1)OCCO2	-0.05
COc1cccc(/C=N/c2ccc(C)cc2C)c1O	-0.05
Cc1ccc(NC(=O)c2ccc(Cl)nc2Cl)cc1Cl	0.02

Quoted from the listing:
Cc1ccc(NC(=O)C(OC(=O)C23CC4CC(CC(O)(C4)C2)C3)c2ccccc2)c([N+](=O)[O-])c1 (stereo not drawn) – TSA(with NAD+) / Primary screening (TSA) / delta Tm (K): -0.13
COC(=O)C(CNC(=O)c1ccc2nccn2c1)c1ccc(F)cc1 (stereo not drawn) – TSA(with NAD+) / Primary screening (TSA) / delta Tm (K): 0.02
Cc1nc(SCC(=O)N(C)C2CCCc3ccccc32)c2ccccc2n1 (stereo not drawn) – TSA(with NAD+) / Primary screening (TSA) / delta Tm (K): -0.18
CC(=O)Nc1ccc(NCc2nnc3n(C)c(=O)c4ccccc4n23)cc1Cl – TSA(with NAD+) / Primary screening (TSA) / delta Tm (K): -0.06
NC(=O)c1c(NC(=O)CSc2nnc(N3CCCC3)n2CC2CCCO2)sc2c1CCCC2 (stereo not drawn) – TSA(with NAD+) / Primary screening (TSA) / delta Tm (K): 0.01
CC1(C)Cc2cccc(OCC(=O)OCC(=O)Nc3ccc(C(N)=O)cc3)c2O1 – TSA(with NAD+) / Primary screening (TSA) / delta Tm (K): 0.08

Further entries

Structure (SMILES)	TSA(with NAD+) / Primary screening (TSA) / delta Tm (K)
Cc1ccc(OCc2nc3ccccc3n2Cc2ccccc2)cc1	-0.21
CCOc1ccc(C(NC(=O)c2cccc(C(N)=O)c2)c2ccccc2)cc1 (stereo not drawn)	-0.09
Cc1sc2ncnc(N3CCC(C(=O)Nc4nn5cnnc5s4)CC3)c2c1C	0.06
NC(=O)C1CCN(C(=O)c2ccn(-c3ccc(F)cc3)n2)C1 (stereo not drawn)	-0.21
O=C(OCC(=O)C12CC3CC(CC(C3)C1)C2)c1nn(Cc2ccccc2)c(=O)c2ccccc12	0.03
Cc1cc(C(=O)O)c2ccccc2n1	-0.16
CC1CCc2[nH]c3ccc(C(=O)O)cc3c2C1 (stereo not drawn)	-0.09
N#CCc1c[nH]c2ccc(C(N)=O)cc12	-0.23
Cc1ccc2c(COc3ncnc4sc5c(c34)CCC5)cc(=O)oc2c1C	-0.09
O=c1cc(N2CCc3ccccc3CC2)nc2ccccn12	-0.11
Nc1nc(CN2CC(CO)Oc3ccccc32)nc(Nc2ccc(F)cc2)n1 (stereo not drawn)	0.15
CC1CN(S(=O)(=O)c2cccc(C(=O)OCC(=O)COC(=O)c3cccc(S(=O)(=O)N4CC(C)OC(C)C4)c3)c2)CC(C)O1 (stereo not drawn)	-0.34
NC(=O)C1CCCN(c2ncnc3cc(Cl)ccc23)C1 (stereo not drawn)	-0.18
CC1COCCN1c1ncnc2ccsc12 (stereo not drawn)	0.03
Cc1ccccc1COC(=O)/C(=C\c1ccccc1)n1nnnc1C	-0.21
COc1cccc(C2C(C(=O)/C=C/c3ccco3)=C(O)C(=O)N2CCCN2CCOCC2)c1OC (stereo not drawn)	-0.01
CC[C@@H]1C[C@H]1CN	-0.09
Cc1cnc(C(=O)Nc2ccc(I)cc2C)cn1	-0.09
NC(=O)C1(c2ccccc2)CCNC1 (stereo not drawn)	-0.05
NC(=O)Cn1cnc2c(cnn2-c2ccccc2)c1=O	-0.01
NC(=O)c1c(NC(=O)CSc2nc3scc(-c4cccs4)c3c(=O)n2-c2ccccc2)sc2c1CCC2	0.09
